Taken from: PubChem BioAssay AID1224830 (NIAID, 2016)
Test: 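Host factors that control LPS-induced TNF expression in human macrophages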 (primary screen). System: human THP-1 monocytic leukaemia cells, TNF dual-luciferase reporter clone, PMA-differentiated to macrophage-like cells. Reagent: siRNA pool against human genes, 50 nM. Time to read-out: LPS for 4 h, given about 3 days after siRNA transfection. Conditions: bacterial LPS (TLR4 ligand), 10 ng/ml. Measured: 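Ratio of firefly to renilla light, scaled to the plate median and expressed as a robust z-score per replicate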. Direction: TNF reporter robust z-score: higher = stronger TNF reporter response to LPS. Active means: 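Each well counts as active if its z-score is over 2.8 or under -1.5; controls are left without a call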.
Shown is an unselected part of about 18,000 reagents. In the full data, about 2,900 (16%) were called active. 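Calls are made per well; low scores hint the gene aids the LPS response, high scores that it dampens it.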 Unmarked entries are inactive. Repeated entries: four replicate wells of each siRNA pool.

UCHL1 (ubiquitin C-terminal hydrolase L1)
- TNF reporter robust z-score: -0.09

UCHL1 (ubiquitin C-terminal hydrolase L1)
- TNF reporter robust z-score: 0.04

UCHL1 (ubiquitin C-terminal hydrolase L1)
- TNF reporter robust z-score: -0.12

UCHL1 (ubiquitin C-terminal hydrolase L1)
- TNF reporter robust z-score: 0.69

FSCN1 (fascin actin-bundling protein 1)
- TNF reporter robust z-score: 0.85

FSCN1 (fascin actin-bundling protein 1)
- TNF reporter robust z-score: -0.48

FSCN1 (fascin actin-bundling protein 1)
- TNF reporter robust z-score: 1.28

FSCN1 (fascin actin-bundling protein 1)
- TNF reporter robust z-score: 0.52

SNX10 (sorting nexin 10)
- TNF reporter robust z-score: 1.18

SNX10 (sorting nexin 10)
- TNF reporter robust z-score: 1.45

SNX10 (sorting nexin 10)
- TNF reporter robust z-score: 1.54

SNX10 (sorting nexin 10)
- TNF reporter robust z-score: 1.81

ANKRD39 (ankyrin repeat domain 39)
- TNF reporter robust z-score: -0.25

ANKRD39 (ankyrin repeat domain 39)
- TNF reporter robust z-score: -0.95

ANKRD39 (ankyrin repeat domain 39)
- TNF reporter robust z-score: -0.69

ANKRD39 (ankyrin repeat domain 39)
- TNF reporter robust z-score: 0.04

GPKOW (G-patch domain and KOW motifs)
- TNF reporter robust z-score: -0.82

GPKOW (G-patch domain and KOW motifs)
- TNF reporter robust z-score: -0.54

GPKOW (G-patch domain and KOW motifs)
- TNF reporter robust z-score: -0.83

GPKOW (G-patch domain and KOW motifs)
- TNF reporter robust z-score: -0.91

WNT10A (Wnt family member 10A)
- TNF reporter robust z-score: -1.04

WNT10A (Wnt family member 10A)
- TNF reporter robust z-score: -1.07

WNT10A (Wnt family member 10A)
- TNF reporter robust z-score: -0.57

WNT10A (Wnt family member 10A)
- TNF reporter robust z-score: -0.53

OR5V1 (olfactory receptor family 5 subfamily V member 1)
- TNF reporter robust z-score: -0.15

OR5V1 (olfactory receptor family 5 subfamily V member 1)
- TNF reporter robust z-score: -0.4

OR5V1 (olfactory receptor family 5 subfamily V member 1)
- TNF reporter robust z-score: 0.35

OR5V1 (olfactory receptor family 5 subfamily V member 1)
- TNF reporter robust z-score: -0.67

EPCAM (epithelial cell adhesion molecule)
- TNF reporter robust z-score: 0.33

EPCAM (epithelial cell adhesion molecule)
- TNF reporter robust z-score: 1.58

EPCAM (epithelial cell adhesion molecule)
- TNF reporter robust z-score: 0.67

EPCAM (epithelial cell adhesion molecule)
- TNF reporter robust z-score: 0.03

Already shown: an excerpt of the list.
WNT10A (Wnt family member 10A)
- TNF reporter robust z-score: -0.57

WNT10A (Wnt family member 10A)
- TNF reporter robust z-score: -0.53

OR5V1 (olfactory receptor family 5 subfamily V member 1)
- TNF reporter robust z-score: -0.15

OR5V1 (olfactory receptor family 5 subfamily V member 1)
- TNF reporter robust z-score: -0.4

OR5V1 (olfactory receptor family 5 subfamily V member 1)
- TNF reporter robust z-score: 0.35
